The target of this test is T1, Schistosoma mansoni histone deacetylase 8 (SmHDAC8), Gal4-DBD bait fusion (S. mansoni) (UniProt A5H660).
T1 sequence: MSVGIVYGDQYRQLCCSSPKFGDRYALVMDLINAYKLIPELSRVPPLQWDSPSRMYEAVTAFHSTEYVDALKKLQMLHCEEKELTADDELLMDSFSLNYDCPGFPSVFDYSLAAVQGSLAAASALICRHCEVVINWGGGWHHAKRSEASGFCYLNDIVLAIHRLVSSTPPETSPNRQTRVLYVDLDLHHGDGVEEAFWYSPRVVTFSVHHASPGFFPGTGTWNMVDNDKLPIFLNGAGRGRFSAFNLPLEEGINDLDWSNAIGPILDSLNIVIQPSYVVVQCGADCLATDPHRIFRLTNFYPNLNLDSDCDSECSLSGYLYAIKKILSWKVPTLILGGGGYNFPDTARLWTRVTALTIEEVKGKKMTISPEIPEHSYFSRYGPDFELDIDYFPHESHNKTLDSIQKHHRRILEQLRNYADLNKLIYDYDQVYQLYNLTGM
In words: two-hybrid; screen of an S. mansoni adult worm cDNA library (Gal4-AD, pGADT7, AH109) with Gal4-DBD-SmHDAC8 bait (pGBKT7, Y187); mating; selection on medium lacking adenine, histidine, leucine and tryptophan, 30°C, 5 days; restreaking and liquid LacZ assay.

These are yes or no findings as the source states them, for the method shown. A result given as binding can be weak or reduced; the word gives no strength. Where a sequence is shown, tags or fusion partners need not be part of it.

The values that follow come from publication PMC5722368.

With actin 5c (S. mansoni), the binding result is “binds”.
